Experimental data from article PMC5689596.
No constants are given. Whether binding was seen depends on the method and setting. Binding seen in cells or lysates may run through a third protein. A yes stands for co-enrichment or nearness to the bait. Other partners may have been found.

Biological target: T1, neural pentraxin-1 precursor (Nptx1), endogenous in mouse hypothalamus (mouse (endogenous in hypothalamus)) (UniProt Q62443)
T1 sequence: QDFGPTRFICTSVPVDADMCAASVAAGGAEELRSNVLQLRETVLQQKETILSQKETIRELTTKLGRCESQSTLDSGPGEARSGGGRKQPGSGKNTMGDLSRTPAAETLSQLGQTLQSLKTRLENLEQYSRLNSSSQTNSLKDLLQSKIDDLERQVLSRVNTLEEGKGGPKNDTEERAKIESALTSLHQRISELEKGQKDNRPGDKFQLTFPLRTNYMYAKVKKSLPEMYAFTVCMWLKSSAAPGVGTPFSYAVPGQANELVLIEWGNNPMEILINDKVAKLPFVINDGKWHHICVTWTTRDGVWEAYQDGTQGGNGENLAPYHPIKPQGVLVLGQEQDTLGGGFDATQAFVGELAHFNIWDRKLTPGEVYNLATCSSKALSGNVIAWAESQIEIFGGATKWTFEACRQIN
Assay: affinity purification with mass spectrometry; immunoprecipitation of Nptx1 from mice hypothalamus before and during puberty; blue staining, bands identified by mass spectrometry

- binding: binds
B1: Makorin ring finger protein 3 (Mkrn3), endogenous in mouse hypothalamus (protein, UniProt Q60764 1-544)
chain: MEESTAPIEAHAAAGAEAGAEGGEGVSVPPPPQFEAAGASAGVSSAPLQQASGLAPLLVTPGPAIRRAASLRPAPAEGGGARSGPERNSGSWTKQILCRYYLHGQCKEGDNCRYSHDLSGRRRSRGGQDAQPRASADRGPKMATRWEPPTQEVAEAPPAASSSSLPLIGSAAERGFTEAEIDNAGIRSAAERGFSEAEIDNASLAAGAAAGAGAEGWEGAIEFVPGQPYRGRMVPPHGPEAPLQSPAIEREHMAMGMGMPMPVPMPMPVPMPVPMPLPLCRYAARGQCLRGDRCAYPHGEICDMCGQQALHPWDAAQQEAHRRACVEAHERDMELSFAVQRSMDKVCGICMEVVYEKADPSDRRFGILFSCNHTYCLRCIRRWRSATQFENRISKSCPQCRVSSGFVIPSEFWVEEEEEKEKLVQQYKEGMSQKACRYFAGGLGHCPFGEFCFYKHEYPEGWRDQPPRPDGGGSSSAYWHQVLEPVQLREGNVLFKSRKKEHSVLRLANQLLKKLLCLRGSSSFSDDRWLLLQYQLEEYFSLNL
